Data published in PMC7080818.
Results are given in words; binding and its absence hold for the method and conditions named. Binding seen in cells or lysates may run through a third protein. Some entries that bind do so weakly or less than the wild type.

By UniProt entry, the sequences of proteins in these tests, tags left out. Residues count along the entry.
UniProt P03186, residues 1-235: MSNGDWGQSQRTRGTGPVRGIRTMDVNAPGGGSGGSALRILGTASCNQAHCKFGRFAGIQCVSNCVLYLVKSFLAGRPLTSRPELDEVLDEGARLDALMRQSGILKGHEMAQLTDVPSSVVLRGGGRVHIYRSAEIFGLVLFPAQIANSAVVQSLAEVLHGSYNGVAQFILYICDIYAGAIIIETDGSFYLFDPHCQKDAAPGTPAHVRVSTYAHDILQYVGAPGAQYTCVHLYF
UniProt P10220, residues 1-293: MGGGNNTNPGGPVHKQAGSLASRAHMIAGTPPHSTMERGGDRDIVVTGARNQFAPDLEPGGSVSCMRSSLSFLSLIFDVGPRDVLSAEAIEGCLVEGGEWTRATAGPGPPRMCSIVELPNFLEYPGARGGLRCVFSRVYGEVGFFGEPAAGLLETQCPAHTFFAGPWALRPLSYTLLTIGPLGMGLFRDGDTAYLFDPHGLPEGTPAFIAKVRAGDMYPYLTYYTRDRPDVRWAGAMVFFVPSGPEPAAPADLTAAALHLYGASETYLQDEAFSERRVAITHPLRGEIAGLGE
UniProt Q14258: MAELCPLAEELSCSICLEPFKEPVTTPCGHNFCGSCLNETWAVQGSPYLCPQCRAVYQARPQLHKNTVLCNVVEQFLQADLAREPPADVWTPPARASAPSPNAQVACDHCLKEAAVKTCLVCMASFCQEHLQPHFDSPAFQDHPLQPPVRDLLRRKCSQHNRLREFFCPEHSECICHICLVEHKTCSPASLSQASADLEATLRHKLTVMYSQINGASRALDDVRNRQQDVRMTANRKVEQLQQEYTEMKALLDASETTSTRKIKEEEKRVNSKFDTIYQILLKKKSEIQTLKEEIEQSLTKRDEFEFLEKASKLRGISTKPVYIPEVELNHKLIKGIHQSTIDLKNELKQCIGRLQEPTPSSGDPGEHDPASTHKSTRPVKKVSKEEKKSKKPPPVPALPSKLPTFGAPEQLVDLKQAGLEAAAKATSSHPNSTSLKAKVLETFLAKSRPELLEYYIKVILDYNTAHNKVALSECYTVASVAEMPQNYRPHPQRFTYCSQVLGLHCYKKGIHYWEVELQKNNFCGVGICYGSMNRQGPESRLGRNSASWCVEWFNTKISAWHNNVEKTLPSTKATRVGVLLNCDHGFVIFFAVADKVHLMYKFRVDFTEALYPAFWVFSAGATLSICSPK

Experiments:
[1] = target: 3xFLAG-BPLF1 (amino acid residues 1-235), N-terminal catalytic domain of the EBV large tegument protein (Epstein-Barr virus (EBV)) (UniProt P03186); experiment: co-IP; HeLa cells transfected with the FLAG-tagged viral enzymes; NP-40 lysates (50 mM Tris-HCl pH 7.6, 150 mM NaCl, 1% Igepal) incubated 4 h with anti-FLAG agarose, eluted with 3x-FLAG peptide; blots probed for endogenous pan 14-3-3 and TRIM25
[2] = target: 3xFLAG-tagged HSV-UL36 (amino acid residues 1-293), N-terminal catalytic domain of the HSV-1 large tegument protein (herpes simplex virus-1 (HSV-1)) (UniProt P10220); experiment: as above

For “TRIM25 ubiquitin ligase (endogenous) (from UniProt Q14258 1-630)”, the binding [1] was “binds” and the binding [2] was “binds”.
